Experimental data published in patent US20260183369A1, “CHEMERIN-CONTAINING FORMULATION FOR TREATING DRY EYE DISEASE” (OKYO Pharma Limited, priority 2022, published 2026).
Part of at least one peptide drawing is inferred or uncertain, most often the ends. Square brackets hold non-standard residues; d marks the D form. Peptide text beside a SMILES is read from it. * marks the point of attachment. PEG8 = NCCOCCOCCOCCOCCOCCOCCOCCOCCC(=O)O; Palmitoyl = CCCCCCCCCCCCCCCC(=O)*; Tic = O=C(O)[C@@H]1Cc2ccccc2CN1

Tests used:
[1] = test system: neuropathic pain in mice; settings: cited from earlier work
[2] = test system: mouse models of DED; assay: experimental model of dry eye disease in mice; format: in vivo
[3] = test system: regulatory T cells (Tregs); settings: in vivo; cited from earlier work
[4] = test system: mouse model of corneal neuropathic pain; assay: mouse model of corneal neuropathic pain; format: in vivo
[5] = test system: animal models of asthma; settings: in vivo; cited from earlier work
[6] = solubility and pH stability of OK-101 in sodium phosphate buffer; format: physicochemical
Protocol: The solubility and pH stability of OK-101 at a target concentration of 0.05% w/v, was tested in either 50 mM or 100 mM sodium phosphate buffer. For each concentration of sodium phosphate buffer, the solubility and pH stability were determined in three separate buffer batches, each with a different starting pH.

[7] = compared to vehicle, dry eye mice model

**Q.** What does the source list for `CCCCCCCCCCCCCCCC(=O)NCCOCCOCCOCCOCCOCCOCCOCCOCCC(=O)NCC(=O)NCC(=O)N[C@H](Cc1ccc(O)cc1)C(=O)N[C@@H](Cc1ccccc1)C(=O)N[C@@H](CC(C)C)C(=O)N1CCC[C@H]1C(=O)N[C@H](CO)C(=O)N[C@@H](CCC(N)=O)C(=O)N[C@@H](Cc1ccccc1)C(=O)N[C@H](C)C(=O)N1Cc2ccccc2C[C@H]1C(=O)N[C@@H](CO)C(=O)O` [OK-101] ({Palmitoyl-PEG8}-GG[dY]FLP[dS]QF[dA][Tic]S-OH)?
**A.** neuropathic pain [1]: attenuating neuropathic pain; T regulatory cells in the draining lymph node [2, 7]: increased; count of CD4+ T cells (biomarkers of inflammation) [2, 7]: reduced; goblet cell density [2, 7]: normalized; anti-inflammatory activity ([2]; mouse models of DED, binding of OK-101 to ChemR23): anti-inflammatory activity; corneal permeability ([2]; topical application of OK-101 (0.04%) vs vehicle): significant reduction; inflammation environment in autoimmune diseases [3]: recruiting regulatory T cells (Tregs); ocular pain-reducing activity [4]: potent ocular pain-reducing activity; inflammation in animal models of asthma [5]: resolve the inflammation; pH change of buffer ([6]; 50 mM sodium phosphate buffer, compared to the 100 mM buffer): dropped slightly more; pH change of buffer ([6]; 100 mM sodium phosphate buffer, at the high concentration): dropped slightly
